Assay results as given in paper doi:10.1101/264788.

Amino acid sequences for entries named in this document (tags omitted).
UniProt P50613: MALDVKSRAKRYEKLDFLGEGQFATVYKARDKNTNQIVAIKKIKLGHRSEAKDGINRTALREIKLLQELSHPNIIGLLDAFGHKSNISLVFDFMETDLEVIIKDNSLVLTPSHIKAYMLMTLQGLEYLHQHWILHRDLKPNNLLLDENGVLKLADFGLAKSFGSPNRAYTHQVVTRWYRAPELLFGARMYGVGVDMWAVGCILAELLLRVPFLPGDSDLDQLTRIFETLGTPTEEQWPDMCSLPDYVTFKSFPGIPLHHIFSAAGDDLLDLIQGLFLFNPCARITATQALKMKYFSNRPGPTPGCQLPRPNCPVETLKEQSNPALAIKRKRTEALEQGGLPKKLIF
UniProt P49336: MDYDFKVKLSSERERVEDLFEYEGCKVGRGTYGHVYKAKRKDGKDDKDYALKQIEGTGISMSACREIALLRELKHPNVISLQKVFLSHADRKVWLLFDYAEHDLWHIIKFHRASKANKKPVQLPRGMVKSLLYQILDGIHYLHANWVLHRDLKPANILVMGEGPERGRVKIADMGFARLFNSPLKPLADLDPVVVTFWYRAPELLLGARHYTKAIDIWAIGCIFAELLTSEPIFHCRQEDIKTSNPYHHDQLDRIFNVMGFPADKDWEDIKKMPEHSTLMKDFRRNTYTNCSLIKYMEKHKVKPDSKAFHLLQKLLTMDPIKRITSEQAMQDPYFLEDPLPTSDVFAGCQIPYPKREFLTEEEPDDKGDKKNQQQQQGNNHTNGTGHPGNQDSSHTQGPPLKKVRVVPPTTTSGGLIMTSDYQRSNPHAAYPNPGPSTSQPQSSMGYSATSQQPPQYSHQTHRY
UniProt Q9UHV7: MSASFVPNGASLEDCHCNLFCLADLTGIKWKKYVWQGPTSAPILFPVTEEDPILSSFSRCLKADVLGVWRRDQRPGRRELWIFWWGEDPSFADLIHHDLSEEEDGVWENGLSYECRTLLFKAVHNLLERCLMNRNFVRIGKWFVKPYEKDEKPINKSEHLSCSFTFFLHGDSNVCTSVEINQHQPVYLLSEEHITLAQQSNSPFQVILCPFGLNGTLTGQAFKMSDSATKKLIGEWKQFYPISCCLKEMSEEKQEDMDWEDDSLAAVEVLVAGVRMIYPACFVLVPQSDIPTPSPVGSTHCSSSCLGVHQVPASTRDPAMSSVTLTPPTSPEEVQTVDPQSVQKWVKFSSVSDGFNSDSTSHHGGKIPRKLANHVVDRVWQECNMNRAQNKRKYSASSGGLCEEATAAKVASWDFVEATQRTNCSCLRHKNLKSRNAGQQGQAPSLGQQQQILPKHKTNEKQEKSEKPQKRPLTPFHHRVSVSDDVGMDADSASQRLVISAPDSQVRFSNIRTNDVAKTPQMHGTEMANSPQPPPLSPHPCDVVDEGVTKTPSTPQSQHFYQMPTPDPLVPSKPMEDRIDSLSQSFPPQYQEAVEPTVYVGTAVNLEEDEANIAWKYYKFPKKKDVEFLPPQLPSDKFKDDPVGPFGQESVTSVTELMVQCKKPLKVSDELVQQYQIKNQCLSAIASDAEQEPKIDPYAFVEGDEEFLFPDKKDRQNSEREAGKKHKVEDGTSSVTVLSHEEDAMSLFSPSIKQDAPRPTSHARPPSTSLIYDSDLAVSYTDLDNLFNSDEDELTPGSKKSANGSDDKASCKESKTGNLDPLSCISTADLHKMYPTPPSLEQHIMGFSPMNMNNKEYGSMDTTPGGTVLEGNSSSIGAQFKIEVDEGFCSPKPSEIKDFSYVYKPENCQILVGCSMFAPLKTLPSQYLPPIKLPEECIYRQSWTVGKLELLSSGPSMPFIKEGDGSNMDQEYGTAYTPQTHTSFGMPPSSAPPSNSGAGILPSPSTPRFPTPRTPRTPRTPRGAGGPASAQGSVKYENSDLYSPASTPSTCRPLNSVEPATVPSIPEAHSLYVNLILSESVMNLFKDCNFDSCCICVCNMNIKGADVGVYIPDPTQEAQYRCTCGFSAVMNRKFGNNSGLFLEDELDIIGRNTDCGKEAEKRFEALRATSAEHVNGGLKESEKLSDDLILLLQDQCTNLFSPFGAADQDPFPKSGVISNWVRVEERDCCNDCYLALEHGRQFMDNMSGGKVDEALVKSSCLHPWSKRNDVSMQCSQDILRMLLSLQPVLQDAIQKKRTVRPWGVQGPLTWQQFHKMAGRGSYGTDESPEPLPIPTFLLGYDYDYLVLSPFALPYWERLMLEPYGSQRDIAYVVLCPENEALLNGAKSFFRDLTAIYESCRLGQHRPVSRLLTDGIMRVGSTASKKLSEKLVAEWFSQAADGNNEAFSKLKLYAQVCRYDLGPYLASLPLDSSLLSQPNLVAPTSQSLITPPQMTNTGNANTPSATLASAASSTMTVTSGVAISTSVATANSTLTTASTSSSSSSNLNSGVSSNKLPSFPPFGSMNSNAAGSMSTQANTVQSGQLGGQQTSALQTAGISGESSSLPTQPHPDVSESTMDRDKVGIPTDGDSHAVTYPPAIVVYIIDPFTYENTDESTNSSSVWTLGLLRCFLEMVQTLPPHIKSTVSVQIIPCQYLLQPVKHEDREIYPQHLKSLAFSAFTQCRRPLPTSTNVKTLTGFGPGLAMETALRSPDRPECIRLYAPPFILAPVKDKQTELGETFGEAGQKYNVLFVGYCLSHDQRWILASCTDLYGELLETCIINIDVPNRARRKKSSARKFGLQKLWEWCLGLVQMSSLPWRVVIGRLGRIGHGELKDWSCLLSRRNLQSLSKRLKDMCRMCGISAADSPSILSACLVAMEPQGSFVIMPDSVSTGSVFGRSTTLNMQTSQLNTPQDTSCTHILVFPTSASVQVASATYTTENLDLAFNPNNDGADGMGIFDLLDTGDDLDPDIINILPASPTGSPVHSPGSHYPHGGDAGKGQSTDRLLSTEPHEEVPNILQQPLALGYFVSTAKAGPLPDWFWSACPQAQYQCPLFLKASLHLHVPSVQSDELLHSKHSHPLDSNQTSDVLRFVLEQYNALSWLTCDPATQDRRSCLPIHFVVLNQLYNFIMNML
UniProt P32780: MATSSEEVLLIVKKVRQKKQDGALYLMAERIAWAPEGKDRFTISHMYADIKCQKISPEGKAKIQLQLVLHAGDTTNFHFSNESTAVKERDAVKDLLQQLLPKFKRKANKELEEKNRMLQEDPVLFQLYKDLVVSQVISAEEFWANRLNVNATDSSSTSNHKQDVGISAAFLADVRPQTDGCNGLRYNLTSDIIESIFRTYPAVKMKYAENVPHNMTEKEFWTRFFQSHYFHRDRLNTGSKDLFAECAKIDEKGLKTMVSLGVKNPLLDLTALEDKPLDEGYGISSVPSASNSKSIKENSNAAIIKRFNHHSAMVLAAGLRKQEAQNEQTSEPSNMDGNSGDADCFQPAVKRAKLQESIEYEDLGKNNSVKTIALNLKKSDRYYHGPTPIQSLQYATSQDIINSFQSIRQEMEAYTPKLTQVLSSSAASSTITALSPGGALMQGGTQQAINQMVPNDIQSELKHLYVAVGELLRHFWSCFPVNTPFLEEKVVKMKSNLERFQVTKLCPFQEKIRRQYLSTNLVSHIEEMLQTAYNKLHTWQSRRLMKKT
UniProt P19447: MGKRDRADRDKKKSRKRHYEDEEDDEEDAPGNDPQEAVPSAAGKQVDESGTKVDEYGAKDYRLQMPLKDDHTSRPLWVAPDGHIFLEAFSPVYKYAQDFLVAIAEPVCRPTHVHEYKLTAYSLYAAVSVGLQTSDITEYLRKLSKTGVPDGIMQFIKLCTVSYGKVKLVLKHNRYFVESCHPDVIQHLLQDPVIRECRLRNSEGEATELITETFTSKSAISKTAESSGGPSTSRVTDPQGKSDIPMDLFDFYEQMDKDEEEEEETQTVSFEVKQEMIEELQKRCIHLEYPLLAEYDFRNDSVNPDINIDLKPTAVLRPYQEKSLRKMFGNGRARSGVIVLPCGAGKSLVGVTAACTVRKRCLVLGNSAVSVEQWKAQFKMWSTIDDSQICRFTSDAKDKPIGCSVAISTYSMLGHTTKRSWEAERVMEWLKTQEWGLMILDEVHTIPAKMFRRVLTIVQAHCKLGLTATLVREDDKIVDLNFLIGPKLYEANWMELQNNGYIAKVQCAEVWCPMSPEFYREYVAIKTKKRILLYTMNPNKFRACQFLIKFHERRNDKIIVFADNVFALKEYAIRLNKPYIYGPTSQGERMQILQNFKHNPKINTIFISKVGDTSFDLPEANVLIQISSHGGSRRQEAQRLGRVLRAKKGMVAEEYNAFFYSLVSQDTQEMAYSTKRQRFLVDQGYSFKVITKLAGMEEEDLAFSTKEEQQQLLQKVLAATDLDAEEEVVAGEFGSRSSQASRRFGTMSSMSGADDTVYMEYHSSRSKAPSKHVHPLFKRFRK

B1: MED16 (protein, UniProt Q9Y2X0 1-877)
chain: MCDLRRPAAGGMMDLAYVCEWEKWSKSTHCPSVPLACAWSCRNLIAFTMDLRSDDQDLTRMIHILDTEHPWDLHSIPSEHHEAITCLEWDQSGSRLLSADADGQIKCWSMADHLANSWESSVGSLVEGDPIVALSWLHNGVKLALHVEKSGASSFGEKFSRVKFSPSLTLFGGKPMEGWIAVTVSGLVTVSLLKPSGQVLTSTESLCRLRGRVALADIAFTGGGNIVVATADGSSASPVQFYKVCVSVVSEKCRIDTEILPSLFMRCTTDLNRKDKFPAITHLKFLARDMSEQVLLCASSQTSSIVECWSLRKEGLPVNNIFQQISPVVGDKQPTILKWRILSATNDLDRVSAVALPKLPISLTNTDLKVASDTQFYPGLGLALAFHDGSVHIVHRLSLQTMAVFYSSAAPRPVDEPAMKRPRTAGPAVHLKAMQLSWTSLALVGIDSHGKLSVLRLSPSMGHPLEVGLALRHLLFLLEYCMVTGYDWWDILLHVQPSMVQSLVEKLHEEYTRQTAALQQVLSTRILAMKASLCKLSPCTVTRVCDYHTKLFLIAISSTLKSLLRPHFLNTPDKSPGDRLTEICTKITDVDIDKVMINLKTEEFVLDMNTLQALQQLLQWVGDFVLYLLASLPNQGSLLRPGHSFLRDGTSLGMLRELMVVIRIWGLLKPSCLPVYTATSDTQDSMSLLFRLLTKLWICCRDEGPASEPDEALVDECCLLPSQLLIPSLDWLPASDGLVSRLQPKQPLRLQFGRAPTLPGSAATLQLDGLARAPGQPKIDHLRRLHLGACPTEECKACTRCGCVTMLKSPNRTTAVKQWEQRWIKNCLAVEGRGPDACVTSRASEEAPAFVQLGPQSTHHSPRTPRSLDHLHPEDRP
B2: MED6 (protein, UniProt O75586 1-246)
chain: MAAVDIRDNLLGISWVDSSWIPILNSGSVLDYFSERSNPFYDRTCNNEVVKMQRLTLEHLNQMVGIEYILLHAQEPILFIIRKQQRQSPAQVIPLADYYIIAGVIYQAPDLGSVINSRVLTAVHGIQSAFDEAMSYCRYHPSKGYWWHFKDHEEQDKVRPKAKRKEEPSSIFQRQRVDALLLDLRQKFPPKFVQLKPGEKPVPVDQTKKEAEPIPETVKPEEKETTKNVQQTVSAKGPPEKRMRLQ
B3: MED4 (protein, UniProt Q9NPJ6 1-270)
chain: MAASSSGEKEKERLGGGLGVAGGNSTRERLLSALEDLEVLSRELIEMLAISRNQKLLQAGEENQVLELLIHRDGEFQELMKLALNQGKIHHEMQVLEKEVEKRDSDIQQLQKQLKEAEQILATAVYQAKEKLKSIEKARKGAISSEEIIKYAHRISASNAVCAPLTWVPGDPRRPYPTDLEMRSGLLGQMNNPSTNGVNGHLPGDALAAGRLPDVLAPQYPWQSNDMSMNMLPPNHSSDFLLEPPGHNKENEDDVEIMSTDSSSSSSESD
B4: TFIIH2 (protein, UniProt Q13888 1-395)
chain: MDEEPERTKRWEGGYERTWEILKEDESGSLKATIEDILFKAKRKRVFEHHGQVRLGMMRHLYVVVDGSRTMEDQDLKPNRLTCTLKLLEYFVEEYFDQNPISQIGIIVTKSKRAEKLTELSGNPRKHITSLKKAVDMTCHGEPSLYNSLSIAMQTLKHMPGHTSREVLIIFSSLTTCDPSNIYDLIKTLKAAKIRVSVIGLSAEVRVCTVLARETGGTYHVILDESHYKELLTHHVSPPPASSSSECSLIRMGFPQHTIASLSDQDAKPSFSMAHLDGNTEPGLTLGGYFCPQCRAKYCELPVECKICGLTLVSAPHLARSYHHLFPLDAFQEIPLEEYNGERFCYGCQGELKDQHVYVCAVCQNVFCVDCDVFVHDSLHCCPGCIHKIPAPSGV
B5: TFIIH3 (protein, UniProt Q13889 1-308)
chain: MVSDEDELNLLVIVVDANPIWWGKQALKESQFTLSKCIDAVMVLGNSHLFMNRSNKLAVIASHIQESRFLYPGKNGRLGDFFGDPGNPPEFNPSGSKDGKYELLTSANEVIVEEIKDLMTKSDIKGQHTETLLAGSLAKALCYIHRMNKEVKDNQEMKSRILVIKAAEDSALQYMNFMNVIFAAQKQNILIDACVLDSDSGLLQQACDITGGLYLKVPQMPSLLQYLLWVFLPDQDQRSQLILPPPVHVDYRAACFCHRNLIEIGYVCSVCLSIFCNFSPICTTCETAFKISLPPVLKAKKKKLKVSA
B6: MED24 (protein, UniProt O75448 1-989)
chain: MKVVNLKQAILQAWKERWSDYQWAINMKKFFPKGATWDILNLADALLEQAMIGPSPNPLILSYLKYAISSQMVSYSSVLTAISKFDDFSRDLCVQALLDIMDMFCDRLSCHGKAEECIGLCRALLSALHWLLRCTAASAERLREGLEAGTPAAGEKQLAMCLQRLEKTLSSTKNRALLHIAKLEEASSWTAIEHSLLKLGEILANLSNPQLRSQAEQCGTLIRSIPTMLSVHAEQMHKTGFPTVHAVILLEGTMNLTGETQSLVEQLTMVKRMQHIPTPLFVLEIWKACFVGLIESPEGTEELKWTAFTFLKIPQVLVKLKKYSHGDKDFTEDVNCAFEFLLKLTPLLDKADQRCNCDCTNFLLQECGKQGLLSEASVNNLMAKRKADREHAPQQKSGENANIQPNIQLILRAEPTVTNILKTMDADHSKSPEGLLGVLGHMLSGKSLDLLLAAAAATGKLKSFARKFINLNEFTTYGSEESTKPASVRALLFDISFLMLCHVAQTYGSEVILSESRTGAEVPFFETWMQTCMPEEGKILNPDHPCFRPDSTKVESLVALLNNSSEMKLVQMKWHEACLSISAAILEILNAWENGVLAFESIQKITDNIKGKVCSLAVCAVAWLVAHVRMLGLDEREKSLQMIRQLAGPLFSENTLQFYNERVVIMNSILERMCADVLQQTATQIKFPSTGVDTMPYWNLLPPKRPIKEVLTDIFAKVLEKGWVDSRSIHIFDTLLHMGGVYWFCNNLIKELLKETRKEHTLRAVELLYSIFCLDMQQVTLVLLGHILPGLLTDSSKWHSLMDPPGTALAKLAVWCALSSYSSHKGQASTRQKKRHREDIEDYISLFPLDDVQPSKLMRLLSSNEDDANILSSPTDRSMSSSLSASQLHTVNMRDPLNRVLANLFLLISSILGSRTAGPHTQFVQWFMEECVDCLEQGGRGSVLQFMPFTTVSELVKVSAMSSPKVVLAITDLSLPLGRQVAAKAIAAL
B7: MED23 (protein, UniProt Q9ULK4 1-1368)
chain: METQLQSIFEEVVKTEVIEEAFPGMFMDTPEDEKTKLISCLGAFRQFWGGLSQESHEQCIQWIVKFIHGQHSPKRISFLYDCLAMAVETGLLPPRLVCESLINSDTLEWERTQLWALTFKLVRKIIGGVDYKGVRDLLKVILEKILTIPNTVSSAVVQQLLAAREVIAYILERNACLLPAYFAVTEIRKLYPEGKLPHWLLGNLVSDFVDTFRPTARINSICGRCSLLPVVNNSGAICNSWKLDPATLRFPLKGLLPYDKDLFEPQTALLRYVLEQPYSRDMVCNMLGLNKQHKQRCPVLEDQLVDLVVYAMERSETEEKFDDGGTSQLLWQHLSSQLIFFVLFQFASFPHMVLSLHQKLAGRGLIKGRDHLMWVLLQFISGSIQKNALADFLPVMKLFDLLYPEKEYIPVPDINKPQSTHAFAMTCIWIHLNRKAQNDNSKLQIPIPHSLRLHHEFLQQSLRNKSLQMNDYKIALLCNAYSTNSECFTLPMGALVETIYGNGIMRIPLPGTNCMASGSITPLPMNLLDSLTVHAKMSLIHSIATRVIKLAHAKSSVALAPALVETYSRLLVYMEIESLGIKGFISQLLPTVFKSHAWGILHTLLEMFSYRMHHIQPHYRVQLLSHLHTLAAVAQTNQNQLHLCVESTALRLITALGSSEVQPQFTRFLSDPKTVLSAESEELNRALILTLARATHVTDFFTGSDSIQGTWCKDILQTIMSFTPHNWASHTLSCFPGPLQAFFKQNNVPQESRFNLKKNVEEEYRKWKSMSNENDIITHFSMQGSPPLFLCLLWKMLLETDHINQIGYRVLERIGARALVAHVRTFADFLVYEFSTSAGGQQLNKCIEILNDMVWKYNIVTLDRLILCLAMRSHEGNEAQVCYFIIQLLLLKPNDFRNRVSDFVKENSPEHWLQNDWHTKHMNYHKKYPEKLYFEGLAEQVDPPVQIQSPYLPIYFGNVCLRFLPVFDIVIHRFLELLPVSKSLETLLDHLGGLYKFHDRPVTYLYNTLHYYEMHLRDRAFLKRKLVHAIIGSLKDNRPQGWCLSDTYLKCAMNAREENPWVPDDTYYCRLIGRLVDTMAGKSPGPFPNCDWRFNEFPNPAAHALHVTCVELMALAVSGKEVGNALLNVVLKSQPLVPRENITAWMNAIGLIITALPEPYWIVLHDRIVSVISSPSLTSETEWVGYPFRLFDFTACHQSYSEMSCSYTLALAHAVWHHSSIGQLSLIPKFLTEVLLPIVKTEFQLLYVYHLVGPFLQRFQQERTRCMIEIGVAFYDMLLNVDQCSTHLNYMDPICDFLYHMKYMFTGDSVKEQVEKIICNLKPALKLRLRFITHISKMEPAAVPPQAMNSGSPAPQSNQVPVSLPVTQ
B8: MED17 (protein, UniProt Q9NVC6 1-651)
chain: MSGVRAVRISIESACEKQVHEVGLDGTETYLPPLSMSQNLARLAQRIDFSQGSGSEEEEAAGTEGDAQEWPGAGSSADQDDEEGVVKFQPSLWPWDSVRNNLRSALTEMCVLYDVLSIVRDKKFMTLDPVSQDALPPKQNPQTLQLISKKKSLAGAAQILLKGAERLTKSVTENQENKLQRDFNSELLRLRQHWKLRKVGDKILGDLSYRSAGSLFPHHGTFEVIKNTDLDLDKKIPEDYCPLDVQIPSDLEGSAYIKVSIQKQAPDIGDLGTVNLFKRPLPKSKPGSPHWQTKLEAAQNVLLCKEIFAQLSREAVQIKSQVPHIVVKNQIISQPFPSLQLSISLCHSSNDKKSQKFATEKQCPEDHLYVLEHNLHLLIREFHKQTLSSIMMPHPASAPFGHKRMRLSGPQAFDKNEINSLQSSEGLLEKIIKQAKHIFLRSRAAATIDSLASRIEDPQIQAHWSNINDVYESSVKVLITSQGYEQICKSIQLQLNIGVEQIRVVHRDGRVITLSYQEQELQDFLLSQMSQHQVHAVQQLAKVMGWQVLSFSNHVGLGPIESIGNASAITVASPSGDYAISVRNGPESGSKIMVQFPRNQCKDLPKSDVLQDNKWSHLRGPFKEVQWNKMEGRNFVYKMELLMSALSPCLL

What was measured:
[1] = target: cyclin-dependent kinase (CDK) 7, MAC-tagged (UniProt P50613); assay: affinity purification with mass spectrometry
[2] = target: cyclin-dependent kinase (CDK) 7, MAC-tagged (UniProt P50613); assay: proximity labelling
[3] = target: cyclin-dependent kinase (CDK) 8, MAC-tagged (UniProt P49336); assay: affinity purification with mass spectrometry + proximity labelling
[4] = target: mediator of RNA polymerase II transcription subunit 13, MAC-tagged (UniProt Q9UHV7); assay: as above

| Molecule | binding [1] | binding [2] | binding [3] | binding [4] |
| --- | --- | --- | --- | --- |
| TFIIH1 (from UniProt P32780 1-548) | binds | binds |  |  |
| TFIIH basal transcription factor complex helicase XPB subunit (from UniProt P19447 1-782) | binds | binds |  |  |
| B1 |  |  | binds | binds |
| B2 |  |  | binds | binds |
| B3 |  |  | binds | binds |
| B4 | binds | binds |  |  |
| B5 | binds | binds |  |  |
| B6 |  |  | binds | binds |
| B7 |  |  | binds | binds |
| B8 |  |  | binds | binds |

These are yes or no findings as the source states them, for the method shown. Binding seen in cells or lysates may run through a third protein. Here binding means that the protein was enriched with, or labelled near, the bait; the list need not be complete.
